Test results published in publication PMC8765783, “Identification of the potential active site of the septal peptidoglycan polymerase FtsW” (PLoS Genetics, 2022).
Where a chain is given by its changes, count along the chain named. No constants are given. Whether binding was seen depends on the method and setting. Binding seen in cells or lysates may run through a third protein. Some entries that bind do so weakly or less than the wild type. Where a sequence is shown, tags or fusion partners need not be part of it.

Columns and labels:
Test in all cases: pull-down; His-tagged protein co-expressed with the untagged partner in E. coli; membranes solubilised in DDM; His-tagged protein held on a HisTrap column (50 mM Tris-HCl pH 7.5, 300 mM NaCl, 10% glycerol, 1 mM DDM, 50 mM imidazole), eluted with an imidazole gradient; SDS-PAGE with Coomassie, Bocillin FL fluorescence or anti-HA blot
[1] = target: T1, His-FtsW (wild type, E. coli) (E. coli) (UniProt P0ABG4)
T1 sequence: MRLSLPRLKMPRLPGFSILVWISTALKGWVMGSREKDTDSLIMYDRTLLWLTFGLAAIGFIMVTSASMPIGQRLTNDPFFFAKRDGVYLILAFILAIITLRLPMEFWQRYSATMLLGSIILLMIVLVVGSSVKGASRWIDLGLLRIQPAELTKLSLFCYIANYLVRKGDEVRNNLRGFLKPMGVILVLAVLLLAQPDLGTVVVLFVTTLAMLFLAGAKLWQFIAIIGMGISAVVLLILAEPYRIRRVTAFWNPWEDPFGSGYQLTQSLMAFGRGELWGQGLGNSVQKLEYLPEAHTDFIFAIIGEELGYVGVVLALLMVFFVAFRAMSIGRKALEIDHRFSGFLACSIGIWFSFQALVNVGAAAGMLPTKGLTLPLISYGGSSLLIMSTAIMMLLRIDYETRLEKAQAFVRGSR

His-FtsW D297A (E. coli) = target: T2, His-FtsW D297A (E. coli) (UniProt P0ABG4)
T2 sequence: T1 sequence with D297A

His-FtsW R243L (E. coli) = target: T3, His-FtsW R243L (E. coli) (UniProt P0ABG4)
T3 sequence: T1 sequence with R243L

His-FtsW P196T (E. coli) = target: T4, His-FtsW P196T (E. coli) (UniProt P0ABG4)
T4 sequence: T1 sequence with P196T

His-FtsW G199A (E. coli) = target: T5, His-FtsW G199A (E. coli) (UniProt P0ABG4)
T5 sequence: T1 sequence with G199A

Measured: binding

B1: FtsI(PBP3), untagged (E. coli) (enzyme, UniProt P0AD68 1-577)
chain: MKAAAKTQKPKRQEEHANFISWRFALLCGCILLALAFLLGRVAWLQVISPDMLVKEGDMRSLRVQQVSTSRGMITDRSGRPLAVSVPVKAIWADPKEVHDAGGISVGDRWKALANALNIPLDQLSARINANPKGRFIYLARQVNPDMADYIKKLKLPGIHLREESRRYYPSGEVTAHLIGFTNVDSQGIEGVEKSFDKWLTGQPGERIVRKDRYGRVIEDISSTDSQAAHNLALSIDERLQALVYRELNNAVAFNKAESGSAVLVDVNTGEVLAMANSPSYNPNNLSGTPKEAMRNRTITDVFEPGSTVKPMVVMTALQRGVVRENSVLNTIPYRINGHEIKDVARYSELTLTGVLQKSSNVGVSKLALAMPSSALVDTYSRFGLGKATNLGLVGERSGLYPQKQRWSDIERATFSFGYGLMVTPLQLARVYATIGSYGIYRPLSITKVDPPVPGERVFPESIVRTVVHMMESVALPGGGGVKAAIKGYRIAIKTGTAKKVGPDGRYINKYIAYTAGVAPASQPRFALVVVINDPQAGKYYGGAVSAPVFGAIMGGVLRTMNIEPDALTTGDKNEFV
binds: all assays above
